From article PMC11651612
Results are given in words; binding and its absence hold for the method and conditions named. In cells and extracts the contact can be indirect. A yes stands for co-enrichment or nearness to the bait. Other partners may have been found.

Key:
[1] = target: T1, Cdc3-mCherry (C. neoformans) (UniProt J9VUF2); assay: affinity purification with mass spectrometry
T1 sequence: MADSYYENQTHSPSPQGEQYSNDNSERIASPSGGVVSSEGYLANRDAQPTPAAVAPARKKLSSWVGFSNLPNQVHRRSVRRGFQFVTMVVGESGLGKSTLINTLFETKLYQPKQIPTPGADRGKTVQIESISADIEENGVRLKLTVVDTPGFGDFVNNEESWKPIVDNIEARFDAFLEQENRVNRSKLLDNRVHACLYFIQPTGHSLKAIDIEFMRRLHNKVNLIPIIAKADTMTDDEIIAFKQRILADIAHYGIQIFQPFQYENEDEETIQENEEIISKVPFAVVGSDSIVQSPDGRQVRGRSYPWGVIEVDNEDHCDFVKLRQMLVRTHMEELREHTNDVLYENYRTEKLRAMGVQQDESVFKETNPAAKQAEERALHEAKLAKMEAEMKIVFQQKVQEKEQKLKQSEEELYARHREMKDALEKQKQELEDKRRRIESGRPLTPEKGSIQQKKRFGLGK

[2] = target: T2, Cdc10-mCherry (C. neoformans) (UniProt J9VMT9); assay: affinity purification with mass spectrometry
T2 sequence: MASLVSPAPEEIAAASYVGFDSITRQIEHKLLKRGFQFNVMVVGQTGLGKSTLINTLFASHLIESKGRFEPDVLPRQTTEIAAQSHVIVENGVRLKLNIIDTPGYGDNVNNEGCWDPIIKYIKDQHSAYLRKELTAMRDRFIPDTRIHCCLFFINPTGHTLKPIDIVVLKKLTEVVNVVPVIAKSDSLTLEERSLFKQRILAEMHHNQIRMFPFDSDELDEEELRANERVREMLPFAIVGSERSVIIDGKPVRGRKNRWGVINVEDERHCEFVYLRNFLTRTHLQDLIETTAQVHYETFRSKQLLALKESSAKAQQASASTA

B1: Uncharacterized protein (CNAG_03045) (protein, UniProt J9VPM1 1-340)
chain: MPSSLVLFTTSQTPLAVRYPHPRKPILNVPPLLHRSLHNALDRDQPSAAFVGNAGGVEDVAQGTLYIPNLEELVKPSPLAVPNGHASPELVHDNIELTVKVHLIVSPTSTPTASARADWVNEALQVFRKAKRLPLPDNLLIGFNGIDYRGIKTATGAEGSVAPDTEVVPAELEQEVLKVWERVFAEQDKLVKEGGKLGSLYAPQGLLRKLTEREGGRRVKVNALDTPDCHHLPKDYTGYARKNGVELWAGGGGEGSDPLPSAHLQNVLQEFLPAIRKIVPEQQAKEFSKLDSLIPLRQDGLKFEDVETGVQVRWVLSYTVLSTTRNVVEDKGYIVAADLV
For B1, the binding [1] was “binds” and the binding [2] was “binds”.

B2: PLAT domain-containing protein (protein, UniProt J9VQK4 1-395)
chain: MEFHTSSQEINKPKQLYPCLAVIDINSSDTKSRRLSAGSFGSDKDEGNVLTRVISGGGRRKSSFGETGGGGGGRRLSFGGKKDDDKVEGKWYWRVQAGVNETHIVLLPLTQPPNPLLTTRPAPLSAAIPSRATHEASTHPNESAIAENEGGNEPGFASRMKNMFRRASSSVKERPSAPSASETTSGGPSIGGERVTDQTERGEMLPSVKGNVEGATNLNSNAELGWPGMINGEKLGAILIPLSSIGKKVGLGGGKKADASWVTVQVTSNTQSMEPIGTSRFDPGPKSGSIKFEFDKDWLGARGEAEVLHHYITTAAAAAPAPTERTAPNPSSFQLGGQHATSGPTQQAQTSDPLFSGSPFANTGRAGDPADRPLVDEAIAPDVSATSSRKVAGVY
In the case of B2, the binding [1] is reported as “binds” and the binding [2] is reported as “binds”.

B3: CUE domain-containing protein (protein, UniProt J9VZQ5 1-943)
chain: MENTIKAPSPRKHSALLTTADDFDTPSQAPTPTPPATLTAHPHLAHYIHSLLNNVHFPPPRSALSQHPLSVSSSGGSDGSDSDDDHHGNVSNVSQSGSEAASTSGASGVTKSSQETGVTRSDYGTARKATTAEKEELVKKIVELLDNDQEEEIKGTLKPYMGELGKDDLLMDQVCLDCMHKRRDDIEGLPYAPHLTPTRARASPGIGSRPFTPTRVPSFRSRTPLSRTHSPVPPIPSHSSATVPPKPASSSGYSPAPSPLASPRMLNAKASTFNPSARVVSGMNASAPGFIPSDAWRDAPSADQPPRAGSPFGAIGAPSMTRTGSNLAIASPLFSDQQSPFHSPVGTPQRTPVKMPDLFSSPAQRAAASKSIVPEDDDDDEFSPFGKGLPKLHHHDTSLKADSKPFNPYFFGAPLGPALNANAGEYTPNIAMSDTSTSYSSSNLGTSDVLDESTTETGSGMTPLDVLCSVFTSVPRPELEDALHRSGYDFEAAMSMLVAAYTNPRSGASTPQRVSSPRPHIGMGRGGRDGYFPTASSRTLRSDISAMGGTRSPGGANGGKMCRYFLAGECRRSDCRFSHDLDRAMCRFWLRGHCAKGPNCEFLHNFPNNLDVSALQTAMSRVEFSQDEYARPDSPGNWHQPPEEFPDLATARSARAPRFDPSRNRFANAIKRAAPAPPRDFPSTQAQAAHSQDYLSDPSISPVPALPRPSMRIKLRPPTLLPTLKTGTAANEQYLASRSTSIRLGHARNACLARAADAFRRGDGAAAKRFSREGKALNQRMLNEAAEAAQGLVKERQAEAMEAVKERPTGWSDDPADRSQRGKACAGGLGVILGVASISRLPPSANASSLSSEERTEALLDLHTLHGNEAADILGQFLAELERERFRGLAYVVVGEEKHVGTQDEKRGAGKIRLGASVKSALAGWGYAWNESAGIICVDPCRT
In the case of B3, the binding [1] is reported as “binds” and the binding [2] is reported as “binds”.
